The record followed here is paper PMC11845855.

By UniProt entry, the sequences of proteins in these tests, tags left out.
UniProt Q6P9T8: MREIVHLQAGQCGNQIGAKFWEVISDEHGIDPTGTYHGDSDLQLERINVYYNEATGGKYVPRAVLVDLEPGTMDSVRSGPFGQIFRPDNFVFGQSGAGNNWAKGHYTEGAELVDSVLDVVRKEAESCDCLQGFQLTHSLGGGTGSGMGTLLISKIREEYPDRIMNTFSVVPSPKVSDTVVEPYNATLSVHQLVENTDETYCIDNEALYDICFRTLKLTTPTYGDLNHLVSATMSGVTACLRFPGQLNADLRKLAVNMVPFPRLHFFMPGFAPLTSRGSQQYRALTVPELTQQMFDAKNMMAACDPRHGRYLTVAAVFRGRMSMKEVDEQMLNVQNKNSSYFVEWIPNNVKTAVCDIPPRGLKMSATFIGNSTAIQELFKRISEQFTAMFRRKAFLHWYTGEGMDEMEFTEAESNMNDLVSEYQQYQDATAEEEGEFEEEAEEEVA
UniProt D4A523: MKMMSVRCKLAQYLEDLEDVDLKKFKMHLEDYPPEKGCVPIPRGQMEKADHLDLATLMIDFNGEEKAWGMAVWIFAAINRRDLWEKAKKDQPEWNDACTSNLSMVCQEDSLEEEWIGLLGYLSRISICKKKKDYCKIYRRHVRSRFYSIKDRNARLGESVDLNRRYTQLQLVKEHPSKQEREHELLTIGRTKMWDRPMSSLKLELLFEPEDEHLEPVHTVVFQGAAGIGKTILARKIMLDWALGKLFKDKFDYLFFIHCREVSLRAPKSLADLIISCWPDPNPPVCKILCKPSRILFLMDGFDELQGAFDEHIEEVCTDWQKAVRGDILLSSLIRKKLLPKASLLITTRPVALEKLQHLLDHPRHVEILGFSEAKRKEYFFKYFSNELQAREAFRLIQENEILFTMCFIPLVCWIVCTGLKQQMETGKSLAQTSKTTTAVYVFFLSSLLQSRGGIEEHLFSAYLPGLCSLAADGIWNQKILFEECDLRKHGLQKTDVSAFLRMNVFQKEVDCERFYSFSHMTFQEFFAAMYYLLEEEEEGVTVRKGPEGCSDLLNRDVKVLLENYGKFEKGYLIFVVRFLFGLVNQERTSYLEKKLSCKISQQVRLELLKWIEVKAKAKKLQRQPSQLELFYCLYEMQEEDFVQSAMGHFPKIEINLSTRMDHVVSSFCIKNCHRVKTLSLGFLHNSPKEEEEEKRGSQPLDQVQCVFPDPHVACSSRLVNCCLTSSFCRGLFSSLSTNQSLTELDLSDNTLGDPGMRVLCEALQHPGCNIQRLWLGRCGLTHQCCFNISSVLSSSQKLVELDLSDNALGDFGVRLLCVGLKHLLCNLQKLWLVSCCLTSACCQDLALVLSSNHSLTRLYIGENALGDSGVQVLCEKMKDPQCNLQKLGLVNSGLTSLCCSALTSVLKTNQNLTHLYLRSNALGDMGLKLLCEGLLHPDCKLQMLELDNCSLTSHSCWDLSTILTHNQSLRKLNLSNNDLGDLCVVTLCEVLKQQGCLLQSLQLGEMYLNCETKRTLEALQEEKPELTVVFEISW

This assay has as its target T1, Flag-USP25 (ubiquitin-specific protease 25), expressed in neonatal rat primary cardiomyocytes (UniProt P57080).
T1 sequence: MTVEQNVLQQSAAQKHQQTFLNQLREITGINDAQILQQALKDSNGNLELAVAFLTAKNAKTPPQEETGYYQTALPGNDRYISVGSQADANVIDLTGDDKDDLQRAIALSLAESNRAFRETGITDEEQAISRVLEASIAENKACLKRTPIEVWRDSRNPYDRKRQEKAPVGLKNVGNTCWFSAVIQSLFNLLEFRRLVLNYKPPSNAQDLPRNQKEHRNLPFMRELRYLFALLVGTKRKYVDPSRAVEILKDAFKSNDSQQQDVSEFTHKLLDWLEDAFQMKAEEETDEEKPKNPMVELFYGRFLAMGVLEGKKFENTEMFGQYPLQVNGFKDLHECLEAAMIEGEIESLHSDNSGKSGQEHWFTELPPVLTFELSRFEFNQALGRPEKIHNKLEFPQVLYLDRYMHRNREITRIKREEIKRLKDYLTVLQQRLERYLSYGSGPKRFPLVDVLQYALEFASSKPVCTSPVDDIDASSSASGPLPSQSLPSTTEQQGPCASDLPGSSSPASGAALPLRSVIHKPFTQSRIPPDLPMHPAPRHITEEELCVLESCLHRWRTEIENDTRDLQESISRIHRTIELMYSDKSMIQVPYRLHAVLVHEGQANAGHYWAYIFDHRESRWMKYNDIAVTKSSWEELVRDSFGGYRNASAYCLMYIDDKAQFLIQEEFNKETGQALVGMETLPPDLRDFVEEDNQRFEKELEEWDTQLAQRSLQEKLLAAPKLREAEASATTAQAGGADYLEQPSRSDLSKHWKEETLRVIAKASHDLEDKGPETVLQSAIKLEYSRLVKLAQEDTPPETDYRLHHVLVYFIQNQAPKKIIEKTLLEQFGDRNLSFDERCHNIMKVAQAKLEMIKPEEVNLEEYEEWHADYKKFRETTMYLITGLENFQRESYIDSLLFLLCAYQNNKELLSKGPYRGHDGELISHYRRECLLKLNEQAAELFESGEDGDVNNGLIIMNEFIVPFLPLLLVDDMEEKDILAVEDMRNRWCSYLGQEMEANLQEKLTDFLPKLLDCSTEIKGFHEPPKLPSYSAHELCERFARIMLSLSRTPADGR
Put plainly: affinity purification with mass spectrometry; NRPCs transfected with Flag-USP25, H/R treatment; anti-Flag and protein G-Sepharose beads; bound proteins by LC-MS/MS; done twice.

Results are given in words; binding and its absence hold for the method and conditions named. In cells and extracts the contact can be indirect. A yes stands for co-enrichment or nearness to the bait. Other partners may have been found. Sequences can lack the tags named with a protein.

On to “Tubb4b, endogenous in neonatal rat primary cardiomyocytes (from UniProt Q6P9T8 1-445)”, for which the binding entry is “binds”.
As for “NLRP3 (NLR family pyrin domain-containing 3), endogenous in neonatal rat primary cardiomyocytes (from UniProt D4A523 1-1035)”, the entry is “binds”; as for “Ddx17, endogenous in neonatal rat primary cardiomyocytes”, “binds”.
